Measured values published in publication PMC4948682.
Results are given in words; binding and its absence hold for the method and conditions named. Binding seen in cells or lysates may run through a third protein. Some binding calls cover weakened binding; strength is not graded here. Where a sequence is shown, tags or fusion partners need not be part of it.

The chains behind the UniProt entries cited, without tags or fusion partners.
UniProt P35222: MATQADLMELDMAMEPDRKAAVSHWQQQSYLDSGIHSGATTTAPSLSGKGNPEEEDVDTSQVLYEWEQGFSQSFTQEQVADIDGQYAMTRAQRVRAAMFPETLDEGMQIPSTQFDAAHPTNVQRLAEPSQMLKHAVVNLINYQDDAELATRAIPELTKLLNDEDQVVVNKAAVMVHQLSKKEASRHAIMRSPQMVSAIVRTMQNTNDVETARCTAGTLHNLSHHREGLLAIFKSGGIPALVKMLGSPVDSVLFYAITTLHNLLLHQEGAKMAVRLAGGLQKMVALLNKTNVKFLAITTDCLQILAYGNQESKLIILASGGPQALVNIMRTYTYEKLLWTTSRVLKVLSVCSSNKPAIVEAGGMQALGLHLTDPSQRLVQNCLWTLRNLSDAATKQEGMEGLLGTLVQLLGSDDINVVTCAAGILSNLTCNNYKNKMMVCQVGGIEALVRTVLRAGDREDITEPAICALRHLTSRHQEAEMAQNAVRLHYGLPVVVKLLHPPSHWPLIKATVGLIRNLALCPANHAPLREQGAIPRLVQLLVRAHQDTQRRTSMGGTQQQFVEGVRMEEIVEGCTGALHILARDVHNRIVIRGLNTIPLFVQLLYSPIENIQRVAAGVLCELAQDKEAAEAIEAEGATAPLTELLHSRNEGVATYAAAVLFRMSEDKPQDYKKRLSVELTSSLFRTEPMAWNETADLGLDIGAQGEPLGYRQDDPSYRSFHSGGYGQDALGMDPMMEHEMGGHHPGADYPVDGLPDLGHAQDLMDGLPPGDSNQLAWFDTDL

T1: GST-SR 1-3 (nesprin-2 spectrin repeats 1-3, amino acids 279-531) (UniProt Q8WXH0)
T1 sequence: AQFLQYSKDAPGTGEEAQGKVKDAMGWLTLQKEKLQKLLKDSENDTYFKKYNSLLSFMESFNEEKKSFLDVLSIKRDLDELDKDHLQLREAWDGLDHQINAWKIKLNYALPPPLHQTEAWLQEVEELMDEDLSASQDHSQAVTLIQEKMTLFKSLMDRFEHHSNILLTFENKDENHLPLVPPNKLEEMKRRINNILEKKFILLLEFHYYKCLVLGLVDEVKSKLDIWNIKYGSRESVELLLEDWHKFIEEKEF

T2: GFP-ABDN2 (N-terminal nesprin-2 fragment, amino acids 1-531) (UniProt Q8WXH0)
T2 sequence: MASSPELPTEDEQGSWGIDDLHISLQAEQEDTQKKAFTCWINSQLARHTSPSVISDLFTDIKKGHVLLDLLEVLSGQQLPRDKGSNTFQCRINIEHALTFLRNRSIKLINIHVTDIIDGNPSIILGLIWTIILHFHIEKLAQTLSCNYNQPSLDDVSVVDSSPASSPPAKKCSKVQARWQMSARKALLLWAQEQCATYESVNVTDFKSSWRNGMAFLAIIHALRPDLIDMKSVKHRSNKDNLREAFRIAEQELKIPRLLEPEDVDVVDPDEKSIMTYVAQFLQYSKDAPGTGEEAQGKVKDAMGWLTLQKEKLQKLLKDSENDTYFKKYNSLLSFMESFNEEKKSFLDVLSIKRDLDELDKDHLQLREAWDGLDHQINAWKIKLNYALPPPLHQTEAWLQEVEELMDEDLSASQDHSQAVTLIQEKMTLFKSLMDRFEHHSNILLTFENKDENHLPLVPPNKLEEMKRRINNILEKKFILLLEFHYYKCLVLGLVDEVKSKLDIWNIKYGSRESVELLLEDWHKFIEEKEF


How the values were obtained:
[1] = molecular target: T1, GST-SR 1-3 (nesprin-2 spectrin repeats 1-3, amino acids 279-531); assay: pull-down; GST alone or GST-SR 1-3 as bait; Western blot for β-catenin; GST loading by Coomassie stain; method as described previously (ref. 14); only the target purified
[2] = molecular target: T2, GFP-ABDN2 (N-terminal nesprin-2 fragment, amino acids 1-531); assay: co-IP; U2OS cells transfected with GFP or GFP-ABDN2 overnight; GFP precipitated with anti-GFP coated Sepharose beads, 2 h at 4 °C; washed three times in IP buffer; Western blot for β-catenin
[3] = molecular target: β-catenin (human (endogenous in U2OS)) (UniProt P35222); assay: co-IP; β-catenin IP from U2OS cells transfected with GFP-ABDN2; Western blot

binding [1]	binding [2]	binding [3]	Molecule
binds	binds		β-catenin (from UniProt P35222 1-781)
		binds	GFP-ABDN2 (N-terminal nesprin-2 fragment, amino acids 1-531) (domain or fragment, UniProt Q8WXH0 1-531) MASSPELPTEDEQGSWGIDDLHISLQAEQEDTQKKAFTCWINSQLARHTSPSVISDLFTDIKKGHVLLDLLEVLSGQQLPRDKGSNTFQCRINIEHALTFLRNRSIKLINIHVTDIIDGNPSIILGLIWTIILHFHIEKLAQTLSCNYNQPSLDDVSVVDSSPASSPPAKKCSKVQARWQMSARKALLLWAQEQCATYESVNVTDFKSSWRNGMAFLAIIHALRPDLIDMKSVKHRSNKDNLREAFRIAEQELKIPRLLEPEDVDVVDPDEKSIMTYVAQFLQYSKDAPGTGEEAQGKVKDAMGWLTLQKEKLQKLLKDSENDTYFKKYNSLLSFMESFNEEKKSFLDVLSIKRDLDELDKDHLQLREAWDGLDHQINAWKIKLNYALPPPLHQTEAWLQEVEELMDEDLSASQDHSQAVTLIQEKMTLFKSLMDRFEHHSNILLTFENKDENHLPLVPPNKLEEMKRRINNILEKKFILLLEFHYYKCLVLGLVDEVKSKLDIWNIKYGSRESVELLLEDWHKFIEEKEF
